# Laboratory results as given in PubChem BioAssay AID504467 (National Center for Advancing Translational Sciences (NCATS), 2011).
# Out of some 330,000 compounds screened, about 7,700 (2.3%) were called active. The shares of active, inactive and inconclusive entries below differ from those in the screen. The call rests on the fitted dose curve; in most records, active means well fitted inhibition curve with a large enough effect; inconclusive means small, poorly fitted or top-dose-only effect, or effect the other way; inactive means flat fitted curve, though single readings scatter. A potency beside an inconclusive call is a rough fit, not a confirmed value.
# Assay: qHTS screen for small molecules that inhibit ELG1-dependent DNA repair in human embryonic kidney (HEK293T) cells expressing luciferase-tagged ELG1; further: nearly all actives have a fitted effect of over 55% in size
# Conditions: HEK293T ELG1-luciferase reporter, luminescence, 16 h, DNA damage induced by 5-fluorouridine; series mostly up to 46.1 µM
# Outline: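 HEK293T cells expressing luciferase-tagged ELG1 (2,000/well) received 5-Fluorouridine plus compound or DMSO for 16 hr at 37 °C. Luciferase was read by ONE-Glo luminescence after 30 min at room temperature.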
# Potency means the concentration at half of the fitted maximal effect.
row,Compound,Potency
1,CCCCC1CC(CSC(=N)N)OC1=O (stereo not given),inactive
2,O=C(CN1C(=O)S/C(=C\c2ccc(Cl)cc2)C1=O)NC1C=CS(=O)(=O)C1 (stereo not given),inactive
3,COc1cccc(OCC(=O)NC2CCCCC2)c1,"inconclusive: 29.1 µM [activator, single point]"
4,Cc1cc(C(=O)OCC(=O)NNC(=O)c2cccs2)ccc1[N+](=O)[O-],inactive
5,O=C(NCCCN1CCOCC1)c1cn(-c2ccccc2)nc1-c1ccc(Br)cc1,"inconclusive: 16.4 µM [inhibitor, single point]"
6,O=C(O)c1ccc(-n2c(-c3cc(C4CC4)[nH]n3)n[nH]c2=S)cc1,inactive
7,CN(C)c1cccc(C(=O)NCC2CCCO2)c1 (stereo not given),"inconclusive: 14.6 µM [activator, partial curve]"
8,COc1ccc(C2=C(C)C(N3CCN(C(=O)c4ccco4)CC3)=NS2(=O)=O)cc1,"inconclusive: 32.6 µM [activator, partial curve, poor fit]"
9,COC(=O)[C@@]12CCCN1[C@H](c1ccc(-c3ccc(OC)cc3)cc1)[C@@H]1C(=O)N(C)C(=O)[C@@H]12,inactive
10,O=C(COc1ccc(/C=C\[N+](=O)[O-])cc1)N1CCOCC1,"inconclusive: 29.1 µM [inhibitor, single point]"
11,O=C(NCc1cccs1)c1ccc(CS(=O)(=O)c2ccc(Cl)cc2)o1,"inconclusive: 16.4 µM [inhibitor, partial curve]"
12,O=C1CSC2=NCN(c3ccc4c(c3)OCO4)CN12,"inconclusive: 18.4 µM [activator, single point]"
13,CCOC(=O)C1=C(O)/C(=C/c2ccc(OCC(=O)O)c(OCC)c2)SC1=Nc1ccc(C)cc1,"inconclusive: 7.3 µM [inhibitor, partial curve]"
14,O=C(Nc1nc2nc(-c3ccccc3)cc(-c3ccccc3)n2n1)c1ccco1,active: 8.2 µM
15,Nn1cnnc1SC1CCCCC1NS(=O)(=O)c1ccccc1 (stereo not given),inactive
16,O=C(NCCc1ccc(F)cc1)c1ccc2c(=O)n3c(nc2c1)CCC3,"inconclusive: 20.6 µM [activator, partial curve]"
17,CCCN1CNc2c(c(=O)[nH]c(=S)n2CCc2ccccc2)C1,inactive
18,CC1CCCN(C(=O)CCS(=O)(=O)c2ccc3c(c2)NC(=O)C(C)S3)C1 (stereo not given),inactive
19,COc1ccc(C2CCCN2C(=S)Nc2cccc(Cl)c2C)cc1OC (stereo not given),"inconclusive: 6.51 µM [inhibitor, partial curve, poor fit]"
20,CN(C)c1ccc(C(C(=O)NCC2CCCO2)N(Cc2ccco2)C(=O)c2snc(C(N)=O)c2N)cc1 (stereo not given),"inconclusive: 14.6 µM [inhibitor, partial curve, poor fit]"

# Exported with tabs: entries from further up.
row	Compound	Potency
7	CN(C)c1cccc(C(=O)NCC2CCCO2)c1 (stereo not given)	inconclusive: 14.6 µM [activator, partial curve]
8	COc1ccc(C2=C(C)C(N3CCN(C(=O)c4ccco4)CC3)=NS2(=O)=O)cc1	inconclusive: 32.6 µM [activator, partial curve, poor fit]
9	COC(=O)[C@@]12CCCN1[C@H](c1ccc(-c3ccc(OC)cc3)cc1)[C@@H]1C(=O)N(C)C(=O)[C@@H]12	inactive
10	O=C(COc1ccc(/C=C\[N+](=O)[O-])cc1)N1CCOCC1	inconclusive: 29.1 µM [inhibitor, single point]
11	O=C(NCc1cccs1)c1ccc(CS(=O)(=O)c2ccc(Cl)cc2)o1	inconclusive: 16.4 µM [inhibitor, partial curve]
